Reference: patent US12729225B2, “Non-canonical SWI/SNF complex and uses thereof” (Dana-Farber Cancer Institute, Inc., priority 2018, dated 2026)

Test system: mSWI/SNF complexes
Assay: mSWI/SNF complex purification with HA-tagged baits and mass spectrometry (peptide counts)
Set-up: species or system human
[1] = 293_HA-BRD7: HA-BRD7 bait purification, total peptide count per co-purified protein
[2] = 293_HA-BRD7: HA-BRD7 bait purification, unique peptide count per co-purified protein

Molecule	Total [1]	Unique [2]	Total (293_HA-BRD7 bait purification, mass spectrometry, total peptides per co-purified protein)	Unique (293_HA-BRD7 bait purification, mass spectrometry, unique peptides per co-purified protein)
VANGL2 (protein, UniProt Q9ULK5 1-521, looked up) Vang-like protein 2: MDTESQYSGYSYKSGHSRSSRKHRDRRDRHRSKSRDGGRGDKSVTIQAPGEPLLDNESTRGDERDDNWGETTTVVTGTSEHSISHDDLTRIAKDMEDSVPLDCSRHLGVAAGATLALLSFLTPLAFLLLPPLLWREELEPCGTACEGLFISVAFKLLILLLGSWALFFRRPKASLPRVFVLRALLMVLVFLLVVSYWLFYGVRILDARERSYQGVVQFAVSLVDALLFVHYLAVVLLELRQLQPQFTLKVVRSTDGASRFYNVGHLSIQRVAVWILEKYYHDFPVYNPALLNLPKSVLAKKVSGFKVYSLGEENSTNNSTGQSRAVIAAAARRRDNSHNEYYYEEAEHERRVRKRRARLVVAVEEAFTHIKRLQEEEQKNPREVMDPREAAQAIFASMARAMQKYLRTTKQQPYHTMESILQHLEFCITHDMTPKAFLERYLAAGPTIQYHKERWLAKQWTLVSEEPVTNGLKDGIVFLLKRQDFSLVVSTKKVPFFKLSEEFVDPKSHKFVMRLQSETSV	8	8		
PRPF40A (protein, UniProt O75400 1-957, looked up) Pre-mRNA-processing factor 40 …: MRPGTGAERGGLMVSEMESHPPSQGPGDGERRLSGSSLCSGSWVSADGFLRRRPSMGHPGMHYAPMGMHPMGQRANMPPVPHGMMPQMMPPMGGPPMGQMPGMMSSVMPGMMMSHMSQASMQPALPPGVNSMDVAAGTASGAKSMWTEHKSPDGRTYYYNTETKQSTWEKPDDLKTPAEQLLSKCPWKEYKSDSGKPYYYNSQTKESRWAKPKELEDLEGYQNTIVAGSLITKSNLHAMIKAEESSKQEECTTTSTAPVPTTEIPTTMSTMAAAEAAAAVVAAAAAAAAAAAAANANASTSASNTVSGTVPVVPEPEVTSIVATVVDNENTVTISTEEQAQLTSTPAIQDQSVEVSSNTGEETSKQETVADFTPKKEEEESQPAKKTYTWNTKEEAKQAFKELLKEKRVPSNASWEQAMKMIINDPRYSALAKLSEKKQAFNAYKVQTEKEEKEEARSKYKEAKESFQRFLENHEKMTSTTRYKKAEQMFGEMEVWNAISERDRLEIYEDVLFFLSKKEKEQAKQLRKRNWEALKNILDNMANVTYSTTWSEAQQYLMDNPTFAEDEELQNMDKEDALICFEEHIRALEKEEEEEKQKSLLRERRRQRKNRESFQIFLDELHEHGQLHSMSSWMELYPTISSDIRFTNMLGQPGSTALDLFKFYVEDLKARYHDEKKIIKDILKDKGFVVEVNTTFEDFVAIISSTKRSTTLDAGNIKLAFNSLLEKAEAREREREKEEARKMKRKESAFKSMLKQAAPPIELDAVWEDIRERFVKEPAFEDITLESERKRIFKDFMHVLEHECQHHHSKNKKHSKKSKKHHRKRSRSRSGSDSDDDDSHSKKKRQRSESRSASEHSSSAESERSYKKSKKHKKKSKKRRHKSDSPESDAEREKDKKEKDRESEKDRTRQRSESKHKSPKKKTGKDSGNWDTSGSELSEGELEKRRRTLLEQLDDDQ	8	8		
PDIA3 (protein, UniProt P30101 25-505, looked up) Protein disulfide-isomerase A3: SDVLELTDDNFESRISDTGSAGLMLVEFFAPWCGHCKRLAPEYEAAATRLKGIVPLAKVDCTANTNTCNKYGVSGYPTLKIFRDGEEAGAYDGPRTADGIVSHLKKQAGPASVPLRTEEEFKKFISDKDASIVGFFDDSFSEAHSEFLKAASNLRDNYRFAHTNVESLVNEYDDNGEGIILFRPSHLTNKFEDKTVAYTEQKMTSGKIKKFIQENIFGICPHMTEDNKDLIQGKDLLIAYYDVDYEKNAKGSNYWRNRVMMVAKKFLDAGHKLNFAVASRKTFSHELSDFGLESTAGEIPVVAIRTAKGEKFVMQEEFSRDGKALERFLQDYFDGNLKRYLKSEPIPESNDGPVKVVVAENFDEIVNNENKDVLIEFYAPWCGHCKNLEPKYKELGEKLSKDPNIVIAKMDATANDVPSPYEVRGFPTIYFSPANKKLNPKKYEGGRELSDFISYLQREATNPPVIQEEKPKKKKKAQEDL	8	8	1	1
CCDC47 (protein, UniProt Q96A33 21-483, looked up) PAT complex subunit CCDC47: KFDDFEDEEDIVEYDDNDFAEFEDVMEDSVTESPQRVIITEDDEDETTVELEGQDENQEGDFEDADTQEGDTESEPYDDEEFEGYEDKPDTSSSKNKDPITIVDVPAHLQNSWESYYLEILMVTGLLAYIMNYIIGKNKNSRLAQAWFNTHRELLESNFTLVGDDGTNKEATSTGKLNQENEHIYNLWCSGRVCCEGMLIQLRFLKRQDLLNVLARMMRPVSDQVQIKVTMNDEDMDTYVFAVGTRKALVRLQKEMQDLSEFCSDKPKSGAKYGLPDSLAILSEMGEVTDGMMDTKMVHFLTHYADKIESVHFSDQFSGPKIMQEEGQPLKLPDTKRTLLFTFNVPGSGNTYPKDMEALLPLMNMVIYSIDKAKKFRLNREGKQKADKNRARVEENFLKLTHVQRQEAAQSRREEKKRAEKERIMNEEDPEKQRRLEEAALRREQKKLEKKQMKMKQIKVKAM	8	8		
ZNF512 (protein, UniProt Q96ME7 1-567, looked up) Zinc finger protein 512: MSSRLGAVPATSGPTTFKQQRSTRIVGAKNSRTQCSIKDNSFQYTIPHDDSLSGSSSASSCEPVSDFPASFRKSTYWMKMRRIKPAATSHVEGSGGVSAKGKRKPRQEEDEDYREFPQKKHKLYGRKQRPKTQPNPKSQARRIRKEPPVYAAGSLEEQWYLEIVDKGSVSCPTCQAVGRKTIEGLKKHMENCKQEMFTCHHCGKQLRSLAGMKYHVMANHNSLPILKAGDEIDEPSERERLRTVLKRLGKLRCMRESCSSSFTSIMGYLYHVRKCGKGAAELEKMTLKCHHCGKPYRSKAGLAYHLRSEHGPISFFPESGQPECLKEMNLESKSGGRVQRRSAKIAVYHLQELASAELAKEWPKRKVLQDLVPDDRKLKYTRPGLPTFSQEVLHKWKTDIKKYHRIQCPNQGCEAVYSSVSGLKAHLGSCTLGNFVAGKYKCLLCQKEFVSESGVKYHINSVHAEDWFVVNPTTTKSFEKLMKIKQRQQEEEKRRQQHRSRRSLRRRQQPGIELPETELSLRVGKDQRRNNEELVVSASCKEPEQEPVPAQFQKVKPPKTNHKRGRK	8	8		
EBNA1BP2 (protein, UniProt Q99848 1-306, looked up) Probable rRNA-processing …: MDTPPLSDSESESDESLVTDRELQDAFSRGLLKPGLNVVLEGPKKAVNDVNGLKQCLAEFKRDLEWVERLDVTLGPVPEIGGSEAPAPQNKDQKAVDPEDDFQREMSFYRQAQAAVLAVLPRLHQLKVPTKRPTDYFAEMAKSDLQMQKIRQKLQTKQAAMERSEKAKQLRALRKYGKKVQTEVLQKRQQEKAHMMNAIKKYQKGFSDKLDFLEGDQKPLAQRKKAGAKGQQMRKGPSAKRRYKNQKFGFGGKKKGSKWNTRESYDDVSSFRAKTAHGRGLKRPGKKGSNKRPGKRTREKMKNRTH	8	8		
PCK2 (protein, UniProt Q16822 33-640, looked up) Phosphoenolpyruvate …: LSGDLGQLPTGIRDFVEHSARLCQPEGIHICDGTEAENTATLTLLEQQGLIRKLPKYNNCWLARTDPKDVARVESKTVIVTPSQRDTVPLPPGGARGQLGNWMSPADFQRAVDERFPGCMQGRTMYVLPFSMGPVGSPLSRIGVQLTDSAYVVASMRIMTRLGTPVLQALGDGDFVKCLHSVGQPLTGQGEPVSQWPCNPEKTLIGHVPDQREIISFGSGYGGNSLLGKKCFALRIASRLARDEGWLAEHMLILGITSPAGKKRYVAAAFPSACGKTNLAMMRPALPGWKVECVGDDIAWMRFDSEGRLRAINPENGFFGVAPGTSATTNPNAMATIQSNTIFTNVAETSDGGVYWEGIDQPLPPGVTVTSWLGKPWKPGDKEPCAHPNSRFCAPARQCPIMDPAWEAPEGVPIDAIIFGGRRPKGVPLVYEAFNWRHGVFVGSAMRSESTAAAEHKGKIIMHDPFAMRPFFGYNFGHYLEHWLSMEGRKGAQLPRIFHVNWFRRDEAGHFLWPGFGENARVLDWICRRLEGEDSARETPIGLVPKEGALDLSGLRAIDTTQLFSLPKDFWEQEVRDIRSYLTEQVNQDLPKEVLAELEALERRVHKM	8	8		
BUD13 (protein, UniProt Q9BRD0 1-619, looked up) BUD13 homolog: MAAAPPLSKAEYLKRYLSGADAGVDRGSESGRKRRKKRPKPGGAGGKGMRIVDDDVSWTAISTTKLEKEEEEDDGDLPVVAEFVDERPEEVKQMEAFRSSAKWKLLGGHNEDLPSNRHFRHDTPDSSPRRVRHGTPDPSPRKDRHDTPDPSPRRARHDTPDPSPLRGARHDSDTSPPRRIRHDSSDTSPPRRARHDSPDPSPPRRPQHNSSGASPRRVRHDSPDPSPPRRARHGSSDISSPRRVHNNSPDTSRRTLGSSDTQQLRRARHDSPDLAPNVTYSLPRTKSGKAPERASSKTSPHWKESGASHLSFPKNSKYEYDPDISPPRKKQAKSHFGDKKQLDSKGDCQKATDSDLSSPRHKQSPGHQDSDSDLSPPRNRPRHRSSDSDLSPPRRRQRTKSSDSDLSPPRRSQPPGKKAAHMYSGAKTGLVLTDIQREQQELKEQDQETMAFEAEFQYAETVFRDKSGRKRNLKLERLEQRRKAEKDSERDELYAQWGKGLAQSRQQQQNVEDAMKEMQKPLARYIDDEDLDRMLREQEREGDPMANFIKKNKAKENKNKKVRPRYSGPAPPPNRFNIWPGYRWDGVDRSNGFEQKRFARLASKKAVEELAYKWSVEDM	8	8		
IARS2 (protein, UniProt Q9NSE4 49-1012, looked up) Isoleucine--tRNA ligase, …: SNHQPNSNSGRYRDTVLLPQTSFPMKLLGRQQPDTELEIQQKCGFSELYSWQRERKVKTEFCLHDGPPYANGDPHVGHALNKILKDIANRFHMMNGSKIHFVPGWDCHGLPIEIKVLSELGREAQNLSAMEIRKKARSFAKAAIEKQKSAFIRWGIMADWNNCYYTFDGKYEAKQLRTFYQMYDKGLVYRSYKPVFWSPSSRTALAEAELEYNPEHVSRSIYVKFPLLKPSPKLASLIDGSSPVSILVWTTQPWTIPANEAVCYMPESKYAVVKCSKSGDLYVLAADKVASVASTLETTFETISTLSGVDLENGTCSHPLIPDKASPLLPANHVTMAKGTGLVHTAPAHGMEDYGVASQHNLPMDCLVDEDGVFTDVAGPELQNKAVLEEGTDVVIKMLQTAKNLLKEEKLVHSYPYDWRTKKPVVIRASKQWFINITDIKTAAKELLKKVKFIPGSALNGMVEMMDRRPYWCISRQRVWGVPIPVFHHKTKDEYLINSQTTEHIVKLVEQHGSDIWWTLPPEQLLPKEVLSEVGGPDALEYVPGQDILDIWFDSGTSWSYVLPGPDQRADLYLEGKDQLGGWFQSSLLTSVAARKRAPYKTVIVHGFTLGEKGEKMSKSLGNVIHPDVVVNGGQDQSKEPPYGADVLRWWVADSNVFTEVAIGPSVLNAARDDISKLRNTLRFLLGNVADFNPETDSIPVNDMYVIDQYMLHLLQDLANKITELYKQYDFGKVVRLLRTFYTRELSNFYFSIIKDRLYCEKENDPKRRSCQTALVEILDVIVRSFAPILPHLAEEVFQHIPYIKEPKSVFRTGWISTSSIWKKPGLEEAVESACAMRDSFLGSIPGKNAAEYKVITVIEPGLLFEIIEMLQSEETSSTSQLNELMMASESTLLAQEPREMTADVIELKGKFLINLEGGDIREESSYKVIVMPTTKEKCPRCWKYTAESSDTLCPRCAEVVSGK	8	8		
